From patent US5858751A, “Compositions and methods for producing sialyltransferases” (The Regents of the University of California, priority 1995, dated 1999)

B1: ST3N: rat Galβ1,3(4)GlcNAc α2,3 sialyltransferase, Seq. ID 3, 4 (protein)
chain: MGLLVFVRNLLLALCLFLVLGFLYYSAWKLHLLQWEDSNSLILSLDSAGQTLGTEYDRLGFLLKLDSKLPAELATKYANFSEGACKPGYASAMMTAIFPRFSKPAPMFLDDSFRKWARIREFVPPFGIKGQDNLIKAILSVTKEYRLTPALDSLHCRRCIIVGNGGVLANKSLGSRIDDYDIVIRLNSAPVKGFEKDVGSKTTLRITYPEGAMQRPEQYERDSLFVLAGFKWQDFKWLKYIVYKERVSASDGFSKSVATRVPKEPPEIRILNPYFIQEAAFTLIRLPFNNGLMGRGNIPTLGSVAVTMALDGCDEVAVAGFGYDMNTPNAPLHYYETVRMAAIKESWTHNIQREKEFLRKLVKARVITDLSSGI
B2: ST6N: rat Galβ1,4GlcNAc α2,6-sialyltransferase (protein, UniProt P13721 1-403, looked up)
Beta-galactoside …: MIHTNLKKKFSLFILVFLLFAVICVWKKGSDYEALTLQAKEFQMPKSQEKVAMGSASQVVFSNSKQDPKEDIPILSYHRVTAKVKPQPSFQVWDKDSTYSKLNPRLLKIWRNYLNMNKYKVSYKGPGPGVKFSVEALRCHLRDHVNVSMIEATDFPFNTTEWEGYLPKENFRTKVGPWQRCAVVSSAGSLKNSQLGREIDNHDAVLRFNGAPTDNFQQDVGSKTTIRLMNSQLVTTEKRFLKDSLYTEGILIVWDPSVYHADIPKWYQKPDYNFFETYKSYRRLNPSQPFYILKPQMPWELWDIIQEISADLIQPNPPSSGMLGIIIMMTLCDQVDIYEFLPSKRKTDVCYYHQKFFDSACTMGAYHPLLFEKNMVKHLNEGTDEDIYLFGKATLSGFRNIRC
B3: ST3: Galβ1,3GalNAc/Galβ1,4GlcNAc α2,3 sialyltransferase, Seq. ID 11, 12 (protein)
chain: MCPAGWKLLAMLALVLVVMVWYSISREDRYIEPFYFPIPEKKEPCLQGEAESKASKLFGNYSRDQPIFLRLEDYFWVKTPSAYELPYGTKGSEDLLLRVLAITSSSIPKNIQSLRCRRCVVVGNGHRLRNSSLGDAINKYDVVIRLNNAPVAGYEGDVGSKTTMRLFYPESAHFDPKVENNPDTLLVLVAFKAMDFHWIETILSDKKRVRKGFWKQPPLIWDVNPKQIRILNPFFMEIAADKLLSLPMQQPRKIKQKPTTGLLAITLALHLCDLVHIAGFGYPDAYNKKQTIHYYEQITLKSMAGSGHNVSQEALAIKRMLEMGAIKNLTSF

Tested on: sialidase from Newcastle disease virus
Type: biochemical
Details: [14C]NeuAc labeled α1-acid glycoprotein hydrolyzed with Newcastle disease virus sialidase

Molecule | total [14C]NeuAc released from the enzyme's sialylated product [%]
B1 | 82
B2 | 0
B3 | 83
